Measured values taken from USRE43135E1, “Method of improving dough and bread quality” (Danisco A/S, priority 2001, dated 2012).

Assays:
[1] = Mini baking test (minibread): bread volume and crumb
Method: The following ingredients were added to a 50 g Brabrender mixing bowl and kneaded for 5 minutes at 30° C.: flour 50 g, dry yeast 1.0 g, sugar 0.8 g, salt 0.8 g, 70 ppm ascorbic acid and water (to a dough consistency of 400 Brabender units). Resting time was 10 min. at 34° C. The dough was scaled 15 g per dough. Then moulded on a special device where the dough was rolled between a wooden plate and a Plexiglas frame. The doughs were proofed in tins for 45 min. at 34° C., and baked in a Voss household oven for 8 min. 225° C.
After baking the breads were cooled to ambient temperature and after 20 min. The breads were scaled and the volume was determined by rape-seed displacement method.
The breads were also cut and crumb and crust evaluated.

[2] = Baking test, hard crust rolls (Danish rolls); conditions: 1.5 mg of LAH, compared with bread with no enzyme, initial results
Method: Flour, Danish reform 1500 g, Compressed Yeast 90 g, sugar 24 g, salt 24 grams, water 400 Brabender units+2% were kneaded in a Hobart™ mixer with hook for 2 minutes low speed and 9 minutes high speed. The dough temperature was 26° C. The dough was scaled 1350 gram. Resting 10 min. at 30° C. and moulded on a Fortuna moulder. The dough was proofed 45 min. at 34° C. The dough was baked in a Bago-oven 18 min. 220° C. and steamed for 12 sec.
After cooling the rolls were scaled and the volume of the rolls was measured by the rape seed displacement method.
The dough quality parameters were also evaluated.
LAH isolated from cowpea was evaluated in baking tests as follows. The LAH was evaluated in hard crust rolls.
LAH was tested in a dosage of 0, 0.25, 0.5, 1 or 1.5 units enzyme/kg flour).

[3] = Baking test, Danish toast bread: loaf volume, firmness, crumb; conditions: initial results
Method: Flour, Danish reform 2000 g, Dry yeast 30 g, sugar 30 g, salt 30 gram and, water 400 Brabender units+3% was kneaded in a Hobart™ Mixer with hook for 2 min. at low speed and 10 min. at high speed. Dough temperature after mixing was 25° C. Resting time was 10 min. at 30° C. The dough was scaled 750 gram per dough. Then rested again for 5 min. at 33° C. and 85% RH. The dough was moulded on a Glimik moulder. The doughs were proofed in tins for 50 min. at 33° C., and baked in a Wachtel oven 40 min. 220° C. and steam injection for 16 sec.
After cooling the bread was scaled, and the volume of the bread was measured by the rape seed displacement method.
The crumb was also evaluated subjectively on a scale 1 to 10, where 1=course inhomogeneous and 10=nice homogeneous.
Three breads baked in tins with lids were stored at 20° C. and used for firmness measurements.
Firmness of bread was measured on a Instron™ M model 4301 connected to a computer.
Conditions for measurement of bread firmness: • Load Cell Max. […]
LAH was tested in bread according to the Danish toast bread procedure using Danish reform flour. […] After baking, the loaves were cooled and the loaf volume measured. Bread baked in tin with a lid were stored at ambient temperature and the crumb softness were evaluated after 1, 3 and 7 days storage at 22° C. wrapped in double plastic bags.

Cowpea LAH: lipolytic acyl hydrolase (E.C. 3.1.1.26) isolated from cowpea (Vigna unguiculata) leaves; hydrolyses glycolipid and phospholipid, not triglyceride
Specific Bread volume ([1]; Cowpea LAH 0.1195 Units/kg): 3 mL/g | Specific Bread volume ([1]; Cowpea LAH 0.239 Units/kg): 3.2 mL/g | Specific Bread volume ([1]; Cowpea LAH 0.478 Units/kg): 3.15 mL/g | Specific Bread volume ([1]; Cowpea LAH 0.956 Units/kg): 3.15 mL/g | Sp. Bread vol. ([1]; Test no 3, Cowpea LAH 0.357 Units/kg flour, no DGDG): 3.22 mL/g | Sp. Bread volume ([1]; Test no 3, Cowpea LAH 0.71 Units/kg flour + DGDG 55% pure 0.4 %): 4.36 mL/g | Sp. Bread vol. ([1]; Test no 4, Cowpea LAH 0.357 Units/kg flour + DGDG 55% pure 0.2 %): 3.69 mL/g | Sp. Bread volume ([1]; Test no 4, Cowpea LAH 0.71 Units/kg flour, no DGDG): 3.14 mL/g | Sp. Bread vol. ([1]; Test no 10, Cowpea LAH 1.07 Units/kg flour, no DGDG): 3.11 mL/g | Sp. Bread vol. ([1]; Test no 11, Cowpea LAH 1.07 Units/kg flour + DGDG 55% pure 0.1 %): 3.3 mL/g | Sp. Bread vol. ([1]; Test no 12, Cowpea LAH 1.07 Units/kg flour + DGDG 55% pure 0.2 %): 3.73 mL/g | Sp. Bread vol. ([1]; Test no 13, Cowpea LAH 1.07 Units/kg flour + DGDG 55% pure 0.4 %): 4.13 mL/g | Sp. Bread vol. ([1]; Test no 15, Cowpea LAH 1.07 Units/kg flour + Soy oil 2 %): 3.3 mL/g | Sp. Bread vol. ([1]; Test no 16, Cowpea LAH 2.14 Units/kg flour + Soy oil 2 %): 3.12 mL/g | Bread volume ([1]; Test no. 2, Cowpea LAH 0.05 % in dough): 3.11 mL/g | Bread volume ([1]; Test no. 3, Cowpea LAH 0.15 % in dough): 3.3 mL/g | increase of loaf volume [2]: more than 10% | loaf volume ([3]; 1-1.5 units of LAH): increases the loaf volume | firmness and elasticity of crumb ([3]; after 7 days storage, compared with control without enzyme): significantly softer crumb
